This assay addresses chicken connexin 26 (GgCx26) gap junction channel (chicken (Gallus gallus)) (UniProt E1C2J9). Nature of the assay: cryo-EM structure; GgCx26 in 0.03% DDM, 90 mmHg PCO2 aCSF buffer gassed with 15% CO2 to pH ~7.4, 3.4 mg/ml; reconstructions with D6 and C6 symmetry; both purified.

Results are given in words; binding and its absence hold for the method and conditions named. Some entries that bind do so weakly or less than the wild type.

With “chicken connexin 26 (GgCx26) gap junction channel (from UniProt E1C2J9 1-225)”, the binding entry is “binds”.

Source of the values: paper PMC11870076.
